1 compound from PubChem BioAssay AID1024 (Sanford-Burnham Center for Chemical Genomics, 2008) can be followed below.

Sequences of proteins named here, by UniProt entry; tags and fusion partners are left off.
UniProt P11712, whole entry, looked up: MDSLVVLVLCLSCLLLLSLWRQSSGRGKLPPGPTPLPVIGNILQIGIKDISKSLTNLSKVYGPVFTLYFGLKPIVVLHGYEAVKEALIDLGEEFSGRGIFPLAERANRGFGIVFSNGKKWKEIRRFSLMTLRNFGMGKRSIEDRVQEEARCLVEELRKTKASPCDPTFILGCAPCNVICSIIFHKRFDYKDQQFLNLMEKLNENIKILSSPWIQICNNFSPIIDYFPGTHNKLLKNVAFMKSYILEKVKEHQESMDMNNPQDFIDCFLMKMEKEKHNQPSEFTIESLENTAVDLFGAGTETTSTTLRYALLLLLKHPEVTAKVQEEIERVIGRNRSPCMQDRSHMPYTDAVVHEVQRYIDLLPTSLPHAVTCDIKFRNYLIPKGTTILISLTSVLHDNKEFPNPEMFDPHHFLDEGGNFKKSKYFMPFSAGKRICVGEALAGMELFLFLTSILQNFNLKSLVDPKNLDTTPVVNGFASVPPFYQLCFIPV

The entries are a selection whose mix differs from that of the whole data set. The source made the active and inactive calls.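 The calls were made as follows: active = activation factor of 2 or more for CYP2C9 at a 5 µM dose; inactive = the rest.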

This test has as its target Cytochrome P450 2C9 (Homo sapiens) (UniProt P11712). The test can be described thus: human CYP2C9 activators, primary screen, biochemical, luminescence (AID 1024).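 Also: 0 = sulfaphenazole-blocked wells and 1 = vehicle-only wells.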 To be noted: recombinant CYP2C9, luciferin-H conversion, at 5 µM, active compounds read high, factor 1 = untreated enzyme, 0 = blocked.
With `CSc1ccccc1NC(=O)c1cc(CC(C)C)on1`, the activation factor was active: 2.3.
